Percent effect of library compounds

By UniProt entry, the sequences of proteins in these tests, tags left out. Residues count along the entry.
UniProt Q8IDJ8, 1-583: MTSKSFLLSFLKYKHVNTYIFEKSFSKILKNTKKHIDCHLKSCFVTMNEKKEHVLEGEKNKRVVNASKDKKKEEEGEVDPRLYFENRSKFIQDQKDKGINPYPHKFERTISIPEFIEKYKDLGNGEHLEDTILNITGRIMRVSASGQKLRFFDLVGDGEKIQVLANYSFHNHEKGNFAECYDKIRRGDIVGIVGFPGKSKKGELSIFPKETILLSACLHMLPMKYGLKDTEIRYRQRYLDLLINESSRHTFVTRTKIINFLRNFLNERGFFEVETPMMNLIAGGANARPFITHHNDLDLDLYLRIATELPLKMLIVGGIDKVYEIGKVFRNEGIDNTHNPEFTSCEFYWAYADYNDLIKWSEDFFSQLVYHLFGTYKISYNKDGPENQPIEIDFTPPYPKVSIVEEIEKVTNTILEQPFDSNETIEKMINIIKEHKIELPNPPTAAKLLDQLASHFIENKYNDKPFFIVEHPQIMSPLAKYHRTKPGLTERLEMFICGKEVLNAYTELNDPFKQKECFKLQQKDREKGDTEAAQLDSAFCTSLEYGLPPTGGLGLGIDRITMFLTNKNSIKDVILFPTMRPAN
UniProt I6X8D2, whole entry: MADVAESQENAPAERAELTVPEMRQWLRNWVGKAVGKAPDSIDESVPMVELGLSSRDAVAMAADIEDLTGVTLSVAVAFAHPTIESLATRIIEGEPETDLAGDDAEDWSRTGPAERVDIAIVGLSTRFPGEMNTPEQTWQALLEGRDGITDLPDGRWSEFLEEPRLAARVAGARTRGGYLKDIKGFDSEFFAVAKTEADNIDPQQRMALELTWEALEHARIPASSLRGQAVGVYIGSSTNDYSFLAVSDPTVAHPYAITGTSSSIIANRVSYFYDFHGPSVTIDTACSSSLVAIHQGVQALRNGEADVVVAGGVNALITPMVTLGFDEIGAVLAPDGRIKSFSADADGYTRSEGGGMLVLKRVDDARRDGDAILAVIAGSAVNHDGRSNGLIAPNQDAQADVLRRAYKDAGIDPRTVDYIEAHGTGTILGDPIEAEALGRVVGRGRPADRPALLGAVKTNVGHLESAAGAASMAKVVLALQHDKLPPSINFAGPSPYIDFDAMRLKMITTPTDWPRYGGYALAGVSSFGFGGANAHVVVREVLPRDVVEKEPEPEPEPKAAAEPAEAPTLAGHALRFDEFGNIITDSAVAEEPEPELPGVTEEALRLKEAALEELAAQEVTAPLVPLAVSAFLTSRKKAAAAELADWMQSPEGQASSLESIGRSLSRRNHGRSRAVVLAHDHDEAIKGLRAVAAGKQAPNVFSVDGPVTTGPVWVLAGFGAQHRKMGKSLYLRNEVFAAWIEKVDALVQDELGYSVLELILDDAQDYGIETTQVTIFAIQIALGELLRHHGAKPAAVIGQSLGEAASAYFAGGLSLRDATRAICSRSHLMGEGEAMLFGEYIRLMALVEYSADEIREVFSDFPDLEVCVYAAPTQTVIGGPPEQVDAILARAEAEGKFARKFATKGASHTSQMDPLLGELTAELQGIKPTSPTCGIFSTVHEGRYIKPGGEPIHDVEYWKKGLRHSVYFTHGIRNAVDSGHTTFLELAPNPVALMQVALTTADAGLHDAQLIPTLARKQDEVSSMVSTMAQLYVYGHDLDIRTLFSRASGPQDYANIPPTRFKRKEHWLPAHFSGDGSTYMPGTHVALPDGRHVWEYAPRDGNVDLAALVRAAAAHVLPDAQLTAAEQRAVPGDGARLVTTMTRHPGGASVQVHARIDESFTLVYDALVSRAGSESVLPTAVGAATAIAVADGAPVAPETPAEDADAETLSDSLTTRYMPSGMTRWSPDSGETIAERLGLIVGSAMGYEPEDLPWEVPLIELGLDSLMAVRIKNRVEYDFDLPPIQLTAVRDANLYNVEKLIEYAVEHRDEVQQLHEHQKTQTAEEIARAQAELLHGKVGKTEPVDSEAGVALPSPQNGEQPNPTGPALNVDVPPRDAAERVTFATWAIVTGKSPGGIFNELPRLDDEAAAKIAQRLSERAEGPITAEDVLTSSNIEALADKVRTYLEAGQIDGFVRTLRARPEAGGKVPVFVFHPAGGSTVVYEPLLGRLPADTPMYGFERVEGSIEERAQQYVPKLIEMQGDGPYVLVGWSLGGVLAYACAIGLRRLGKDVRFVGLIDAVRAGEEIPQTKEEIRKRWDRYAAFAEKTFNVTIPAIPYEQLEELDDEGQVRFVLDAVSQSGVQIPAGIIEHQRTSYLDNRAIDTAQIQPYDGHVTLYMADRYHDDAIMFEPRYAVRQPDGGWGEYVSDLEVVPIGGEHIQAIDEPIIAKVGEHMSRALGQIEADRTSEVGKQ
UniProt P9WPC5, whole entry: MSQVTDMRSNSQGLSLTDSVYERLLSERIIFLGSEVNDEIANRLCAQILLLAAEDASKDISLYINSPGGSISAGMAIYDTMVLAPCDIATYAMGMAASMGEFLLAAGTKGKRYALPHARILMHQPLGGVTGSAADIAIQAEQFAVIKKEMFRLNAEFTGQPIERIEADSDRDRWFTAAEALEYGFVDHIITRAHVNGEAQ
UniProt P9WPC3, whole entry partner: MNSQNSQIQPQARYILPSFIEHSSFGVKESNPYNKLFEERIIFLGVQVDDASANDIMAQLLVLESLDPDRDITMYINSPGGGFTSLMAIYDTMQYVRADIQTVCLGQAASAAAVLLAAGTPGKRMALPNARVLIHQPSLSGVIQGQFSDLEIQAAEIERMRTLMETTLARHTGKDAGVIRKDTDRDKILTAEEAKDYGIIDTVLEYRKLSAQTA

Each number is a percent effect as filed.
The record does not define 0% and 100%; most values in the screen are far below 50% and negative numbers occur (in some assays of this library far below -100).
Compounds were drawn at random from those tested, without regard to their results.

PfKRS1: 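Enzyme assay of the cytosolic lysyl-tRNA synthetase in 384-well plates, read by luminescence. Target: Lysine-tRNA ligase, Plasmodium falciparum 3D7 (UniProt Q8IDJ8). Tested at 30 µM. Direction is inferred from only a few compounds that gave an IC50; most scored high, so higher reads as stronger inhibition. About 69,000 compounds were tested under these conditions; 0.071% (about 49) showed 50% or more at least once.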
Pks13 thioesterase: 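Enzyme assay of the thioesterase domain of polyketide synthase 13; the read-out is not stated. Target: Polyketide synthase Pks13, Mycobacterium tuberculosis (UniProt I6X8D2). Compounds at 30 µM. Higher reads as stronger inhibition (inferred from which compounds were picked for retests). Of about 67,000 compounds tested this way, about 300 (0.46%) reached 50% or more in at least one test.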
ClpP1P2: 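Protease assay of ClpP1P2, read by the AMC dye that it sets free. Target: ClpP1P2, Mycobacterium tuberculosis (UniProt P9WPC5 and UniProt P9WPC3). Tested at 50 µM. Direction is inferred from only a few compounds that gave an IC50; most scored high, so higher reads as stronger inhibition. Most other retested compounds had strongly negative values. About 69,000 compounds were tested under these conditions; 0.015% (about 10) showed 50% or more at least once.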

N#CCSCCCN1CCN(C(=O)C2CCCC2)CC1 gave PfKRS1: 3.988%; Pks13 thioesterase: -1.589%; ClpP1P2: -7.559%. Cn1nccc1C(=O)N1CCCC2(CCN(c3ccsc3)C2=O)C1 (centres undefined) gave PfKRS1: -0.1553%; Pks13 thioesterase: 7.22%; ClpP1P2: 6.094%. Cn1c(CC2CCS(=O)(=O)C2)nnc1SCCOc1cccc(Cl)c1 (centres undefined) read PfKRS1: 5.013%; Pks13 thioesterase: -8.261%; ClpP1P2: 11.57%. O=C(c1ccc(Br)cc1F)N1CCc2ccncc21 gave PfKRS1: 0.5239%; Pks13 thioesterase: 2.94%; ClpP1P2: -13.12%. O=C(c1nc(Cc2c[nH]c3ccccc23)no1)N1CCCCC1 gave PfKRS1: -0.7019%; Pks13 thioesterase: 11.14%; ClpP1P2: -9.334%. For CN(C)c1cc(CNC(=O)c2ccc(O)nc2)ccn1 the result was PfKRS1: -0.7992%; Pks13 thioesterase: -23.37%; ClpP1P2: -40.62%. Cc1ccc(-c2nc(CN3CCn4c(C)nnc4C3)cs2)o1 read PfKRS1: 4.256%; Pks13 thioesterase: -8.378%; ClpP1P2: -6.83%.

Cc1nnc2n1CCN(CCOc1cccc(C#N)c1)C2 gave PfKRS1: 4.729%; Pks13 thioesterase: -19.57%; ClpP1P2: 5.52%. Result for Cc1ccc(NC2CCN(C(=O)Cc3cccs3)CC2)nn1 was PfKRS1: 1.425%; Pks13 thioesterase: -12.91%; ClpP1P2: -30.46%. Result for CN(Cc1ccco1)Cc1ccccc1CNC(=O)c1ccc[nH]1 was PfKRS1: 0.04625%; Pks13 thioesterase: -11.91%; ClpP1P2: -19.03%. Result for CNC(=O)C(C)NC(=O)c1ccc(Oc2cccnc2)cc1 (centres undefined) was PfKRS1: 5.019%; Pks13 thioesterase: -29.36%; ClpP1P2: 6.354%. With O=C(NCc1nnc2n1CCC2)NCC1(c2cccc(F)c2)CC1 the screen gave PfKRS1: 0.8055%; Pks13 thioesterase: -7.501%; ClpP1P2: -7.896%. For FC(F)C(F)(F)COCc1ncnn1-c1ccc2c(c1)OCO2 the result was PfKRS1: 1.725%; Pks13 thioesterase: -21.41%; ClpP1P2: -7.018%. Result for NCc1cnn(-c2ccccc2C(=O)NCCCn2ccnc2)c1 was PfKRS1: -0.4134%; Pks13 thioesterase: -56.15%; ClpP1P2: 2.478%.

With CC/C=C(/C)C(=O)NCc1ccc(OC)nc1 the screen gave PfKRS1: 2.306%; Pks13 thioesterase: -6.731%; ClpP1P2: -1.998%. With COCC1CCN(c2ccnc3ccsc23)C1 (centres undefined) the screen gave PfKRS1: 4.114%; Pks13 thioesterase: -17.71%; ClpP1P2: 5.479%. CC1(C)CNC(=O)CN(C(=O)Cc2ccccc2)C1 gave PfKRS1: 1.542%; Pks13 thioesterase: 0.06353%; ClpP1P2: 4.19%. O=C(CCN1CCCCO1)NCCSc1cnn[nH]1 read PfKRS1: 3.289%; Pks13 thioesterase: -69.44%; ClpP1P2: -11.68%. CN1CCNC(Cc2ccc(-c3ccccc3)cc2)C1=O (centres undefined) gave PfKRS1: -3.018%; Pks13 thioesterase: -19.57%; ClpP1P2: 18.47%. With N#CCCNC(=O)CN1CCC(c2cc3ccccc3[nH]2)CC1 the screen gave PfKRS1: 7.267%; Pks13 thioesterase: -24.6%; ClpP1P2: 6.76%.

Some entries from above, unchanged:

compound	PfKRS1	Pks13 thioesterase	ClpP1P2
Cc1nnc2n1CCN(CCOc1cccc(C#N)c1)C2	4.729	-19.57	5.52
NCc1cnn(-c2ccccc2C(=O)NCCCn2ccnc2)c1	-0.4134	-56.15	2.478

Source: ChEMBL document CHEMBL3988442, “University of Dundee, Small-Polar-MMV Screening Library” (2021).